Among all 1,000 compounds or so, fewer than 10 were called active.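 How the source made its calls: active means fitted half-maximal concentration no higher than twice the top valid tested dose, with signal falling; inconclusive means flat curve with 30 to 70% inhibition, or poor fit; inactive means the rest.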 This is one part of the list. Entries with a potency or affinity are not part of this list.
Each compound was assayed against Golgi-associated PDZ and coiled-coil motif-containing protein (Homo sapiens) (UniProt Q9HD26) (assay: CAL PDZ domain peptide-binding inhibitors, dose response, biochemical, fluorescence polarization, untagged CAL PDZ, cherry-pick, set 2 (AID 602254;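 further: 0% = DMSO neutral control and -100% = unlabeled peptide PRC23 positive control; more negative means stronger blocking of peptide binding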)). Settings: Purified CAL PDZ, TMR peptide fluorescence polarization; at 60 µM (top of the series).

| Structure (SMILES) | activity change, negative = inhibition |
| --- | --- |
| COc1ccc(C2NCCc3cc(OC)c(OC)cc32)cc1OC (stereo not given) | inactive: 1.91% |
| O=C(Nc1ccnn1C1CCN(CC2CC=CCC2)CC1)c1ccccc1Cl (stereo not given) | inactive: -1.42% |
| Cc1cc(C)nc(NCC(O)CNc2ccccc2C)n1 (stereo not given) | inactive: 2.94% |
| CCCCS(=O)(=O)N1CCCC(C(=O)Oc2ccccc2)C1 (stereo not given) | inactive: -3.58% |
| Cc1ccc2nc(N3CCN(Cc4nnnn4C4CCCC4)CC3)c(C#N)cc2c1 | inactive: 2.55% |
| CS(=O)(=O)N(CC(=O)Nc1ccc(Cl)c(Cl)c1)C1CCCCC1 | inactive: -1.08% |
| NC(=O)C1CCCN(C(=O)CCCNC(=O)c2ccc(Cl)cc2)C1 (stereo not given) | inactive: 0.745% |
| CCOC(=O)C1(Cc2ccc(OC)cc2)CCN(C(=O)CCc2cnccn2)CC1 | inactive: 1.47% |
| Cc1cc(-c2n[nH]c(=S)n2-c2ccccc2C)cs1 | inactive: 0.244% |
| Cc1n[nH]c(C)c1CCN(C)Cc1cn(C)nc1-c1ccc2c(c1)OCCO2 | inactive: 0.263% |
| Cc1cc(C)c(S(=O)(=O)NCc2ccc3c(c2)OCO3)c(C)c1 | inactive: -0.301% |
| O=C1CCCN1CC(O)CS(=O)(=O)Cc1ccccc1 (stereo not given) | inactive: -3.87% |
| CN(C)S(=O)(=O)N1CCN(S(=O)(=O)c2ccccc2)CC1 | inactive: 0.757% |
| O=C(COc1ccc(Cl)cc1)Nc1cc(NC(=O)COc2ccc(Cl)cc2)cc(C(=O)O)c1 | inactive: 9.23% |
| CCOC(=O)c1ccc(S(=O)(=O)NCC(C)(C)N2CCOCC2)cc1 | inactive: 0.845% |
| Cc1ccc(C(=O)CCC(=O)NC2CCCC(C)C2C)cc1 (stereo not given) | inactive: 3.9% |
| CN1CCN(c2nc3c(c(=O)[nH]c(=O)n3C)n2Cc2ccccc2F)CC1 | inactive: 3.67% |
| Cc1ccsc1C(=O)NNC(=O)c1cccc(S(=O)(=O)N2CCCC2)c1 | inactive: -2.83% |
| CCOC(=O)C1CCN(c2ccc(-c3cccs3)nn2)CC1 | inactive: 0.333% |
| CN(C(=O)c1ccno1)c1nnc(-c2cccnc2)s1 | inactive: -1.54% |
| Cc1ccc(CNS(=O)(=O)c2c(C(=O)N3CCCCCC3)c(C)n(C)c2C)cc1 | inactive: 0.166% |
| Cc1ccc(-c2nc3ccccc3c(=O)o2)cc1 | inactive: 0.546% |
| Clc1ccc(-c2nsc(N3CCOCC3)n2)c(Cl)c1 | inactive: 2.72% |
| N#CCC(=O)Nc1nc(-c2ccc3c(c2)OCCO3)cs1 | inactive: 0.867% |

| Structure (SMILES) | activity change, negative = inhibition |
| --- | --- |
| CSCCC(NC(=O)COc1cccc2ccccc12)C(=O)O (stereo not given) | inactive: -11.2% |
| CC(C)CC(=O)c1c[nH]c(C(=O)N2CCN(Cc3ccccc3)CC2)c1 | inactive: 0.08% |
| COc1cnc(-c2ccccn2)nc1N(C)C | inactive: -0.111% |
| CC(C)(C)[C@H]1COC(=O)CCCC/C=C\C[C@H](CC(=O)N(CCO)Cc2ccccc2)C(=O)N1 | inactive: -0.817% |
| CCN(CC)S(=O)(=O)c1ccc(NC(=S)NC(=O)CC(C)C)cc1 | inactive: -1.3% |
| Cc1cc(C(=O)COC(=O)C2CCN(C(=O)c3ccc(Cl)cc3)CC2)c(C)n1CC1CCCO1 (stereo not given) | inactive: 2.19% |
| Cc1ccccc1C(=O)c1cccn1CC(=O)NCCC1=CCCCC1 | inactive: 0.05% |
| CCOC(=O)C1CCCN(S(=O)(=O)c2ccc(Cl)nc2)C1 (stereo not given) | inactive: -0.215% |
| Cc1c(C(=O)N2CCOCC2)c(S(=O)(=O)Nc2ccc(C(C)C)cc2)c(C)n1C | inactive: -1.06% |
| COC(=O)[C@H](CC(C)C)N1Cc2cc(OC)cc(OC)c2-c2ccccc2S1(=O)=O | inactive: -2.9% |
| C#CCN(C(=O)c1ccc(OC2CCN(Cc3ccccn3)CC2)cc1)C1CCCCC1 | inactive: 0.759% |
| CC(=O)NC(=S)Nc1cc(C(=O)O)ccc1Cl | inactive: -0.964% |
| O=C(Cn1nc(Cc2cccnc2)c2ccccc2c1=O)Nc1cc(F)ccc1F | inactive: -1.18% |
| N/N=C(\c1ccccc1)c1cc(Br)ccc1N | inactive: 1.57% |
| CC1CC1C(=O)N1CCN(S(=O)(=O)c2cc(C(F)(F)F)cc(C(F)(F)F)c2)CC1 (stereo not given) | inactive: -1.28% |
| CC(=O)c1c(C)[nH]c(C(=O)OCC(=O)c2ccc3c(c2)NC(=O)CO3)c1C | inactive: 2.87% |
| COc1ccc2cc(S(=O)(=O)N3CCCC3)ccc2c1 | inactive: 2.15% |
| COC(=O)c1ccc(NC(=O)C2CCCO2)cc1 (stereo not given) | inactive: -7.93% |
| O=C(NCc1cccc(F)c1)C1CCC(=O)N(C2CCCC2)C1 (stereo not given) | inactive: 0.319% |
| CCN(CC)S(=O)(=O)c1ccc(N2CCOCC2)c(NS(=O)(=O)c2ccc(C)c(C)c2)c1 | inactive: -1.07% |
| COc1ccccc1N(CC(=O)N1CCN(c2ccc(F)cc2)CC1)S(=O)(=O)c1ccc(C)cc1 | inactive: 5.13% |
| COc1cc(C(=O)NNC(=O)c2ccc3c(c2)OCCO3)cc(OC)c1OC | inactive: 3.06% |
| Cc1ccc(S(=O)(=O)Nc2ccc(NC(=O)Nc3cccc(C(F)(F)F)c3)cc2)cc1 | inactive: 2.06% |
| Nc1c2c(nc3ccccc13)CSCC2 | inactive: -1.19% |

| Structure (SMILES) | activity change, negative = inhibition |
| --- | --- |
| COc1ccc(NC2CCCN(C(=O)CCc3ccccc3F)C2)cc1 (stereo not given) | inactive: -3.34% |
| COc1ccc(S(=O)(=O)N(C(C)=O)c2ccc3oc(=O)sc3c2)cc1 | inactive: -5.88% |
| C=CC(=O)NCc1ccc(-c2csnn2)cc1 | inactive: -0.734% |
| CCCN1CCN(S(=O)(=O)c2ccc3c(c2)CCC(=O)N3)CC1 | inactive: -0.697% |
| CN(C)C1(CNC(=S)Nc2ccccc2C(F)(F)F)CCCCC1 | inactive: -0.017% |
| O=C(CC(=O)c1ccccc1)CC(O)(C=Cc1ccccc1)c1ccccc1 (stereo not given) | inactive: 3.75% |
| COc1ccc(N2CCN(C(=O)CN3C(=O)NC4(CCCCCC4)C3=O)CC2)cc1 | inactive: 0.759% |
| CCOC(=O)c1ccc(S(=O)(=O)N2CCN(S(=O)(=O)CC)CC2)cc1 | inactive: -0.142% |
| CCCCN1CC(COCc2ccccc2)Oc2cccc(F)c2S1(=O)=O (stereo not given) | inactive: 0.998% |
| COc1ccccc1/C=N/NC(=O)c1ccc2c(c1)OCO2 | inactive: 2.16% |
| CN(C)CCC(C(=O)c1ccccc1)c1ccccn1 (stereo not given) | inactive: -1.68% |
| CC1CCN(Cc2nnnn2CCCC(=O)NCCc2cnn(C)c2)CC1 | inactive: -1.37% |
| O=C(NC(N1CCOCC1)C(Cl)(Cl)Cl)c1ccc(F)cc1 (stereo not given) | inactive: -0.486% |
| COc1ccc(NC(=O)c2cccc(S(=O)(=O)N3CCCC3)c2)cc1OC | inactive: 8.7% |
| CCOC(=O)C1=C(C)C/C(=N\NC(=O)c2ccccc2O)CC1 | inactive: 3.3% |
| COc1ccc(CN2CCC(n3nccc3NC(=O)C3CC3)CC2)c(OC)c1OC | inactive: -0.491% |
| COc1cc(NC(=S)N2CCN(S(=O)(=O)c3ccc(F)cc3)CC2)cc(OC)c1 | inactive: -2.82% |
| CC(C)c1ccc(N(CC(=O)N2CCOCC2)S(C)(=O)=O)cc1 | inactive: -0.358% |
| Cc1cc(C(=O)NNC(=O)c2cccc(C(F)(F)F)c2)no1 | inactive: -0.975% |
| Cc1ccc(CNc2ncnc3[nH]ncc23)cc1 | inactive: 1.25% |
| O=C(Nc1cccc(-n2cnnn2)c1)c1ccc(OC(F)(F)F)cc1 | inactive: 2.59% |
| Cc1ccc(/C(=N\S(=O)(=O)c2ccc(Br)cc2)Nc2ccccc2C)cc1 | inactive: -0.968% |
| Cc1cc(C)c(C#N)c(N2CCC(C(N)=O)CC2)n1 | inactive: -1.3% |
| COC(=O)c1sccc1NC(=S)N1CCN(C)CC1 | inactive: -0.795% |

A section of the results above, as a working copy:

| Structure (SMILES) | activity change, negative = inhibition |
| --- | --- |
| COc1ccc(CN2CCC(n3nccc3NC(=O)C3CC3)CC2)c(OC)c1OC | inactive: -0.491% |
| COc1cc(NC(=S)N2CCN(S(=O)(=O)c3ccc(F)cc3)CC2)cc(OC)c1 | inactive: -2.82% |
| CC(C)c1ccc(N(CC(=O)N2CCOCC2)S(C)(=O)=O)cc1 | inactive: -0.358% |
| Cc1cc(C(=O)NNC(=O)c2cccc(C(F)(F)F)c2)no1 | inactive: -0.975% |

Next entries.

| Structure (SMILES) | activity change, negative = inhibition |
| --- | --- |
| Cc1onc(-c2c(F)cccc2Cl)c1C(=O)NCc1ccccn1 | inactive: 1.76% |
| O=C(O)CCN(Cc1ccccc1)S(=O)(=O)c1ccccc1Cl | inactive: -0.547% |
| COc1cccc(C(=O)C2CCCN(C(=O)c3ccccn3)C2)c1 (stereo not given) | inactive: -4.12% |
| CC(=O)NC(Cc1cccc(C)c1)C(=O)NC1CCN(S(=O)(=O)c2ccccc2)CC1 (stereo not given) | inactive: 8.23% |
| O=C(CCn1cnnn1)Nc1ccc(Cl)cc1Cl | inactive: -1.9% |
| Cc1ccc(O)c(-c2cc(-c3cccc(Br)c3)n[nH]2)c1 | inactive: 0.711% |
| COc1cc(OC)cc(C(=O)NCC(=O)N2CCCCCCC2)c1 | inactive: -2.43% |
| COc1cccc(C2(O)CCN(C(=O)C(C)C)CC2)c1 | inactive: 2.79% |
| CC(C)CCC(CCN1CCCC1)c1ccc2c(c1)OCO2 (stereo not given) | inactive: 0.896% |
| O=C1NC2(CCCCCC2)C(=O)N1Cc1ccccc1Br | inactive: -1.33% |
| Cc1cccc(NC(=O)CCNC(=O)c2ccc(Br)cc2)c1 | inactive: -2.95% |
| Cc1ccc(C(=O)OC(C)CN2CCOCC2)cc1 (stereo not given) | inactive: -3.25% |
| Cc1ccc(C(=O)N2CCC(N3CCC(C(=O)N4CCOCC4)CC3)CC2)cc1C | inactive: -2.57% |
| CC(=O)c1c(C)[nH]c(C(=O)OCC(=O)NCCC(C)C)c1C | inactive: -1.17% |
| COc1cc(C(=O)N2CCN(S(=O)(=O)c3cccs3)CC2)cc(OC)c1C | inactive: 1.46% |
| COc1ccc(C(=O)NCC(=O)OCC(=O)Nc2sccc2C#N)cc1OC | inactive: 0.376% |
| CCOCCCNC(=O)CCCOc1ccccc1 | inactive: -2.16% |
| COC(=O)Cc1ccc(NC(=S)Nc2cccc(C)n2)cc1 | inactive: 2.44% |
| Cc1cccc(NC(=S)N2CCN(C(=O)C3CCCO3)CC2)c1 (stereo not given) | inactive: 0.092% |
| CN(C(=O)c1cc2ccccc2oc1=O)C1(C)CCS(=O)(=O)C1 (stereo not given) | inactive: -0.159% |
| CCC(CC)C(=O)NCCc1ccc(OC)c(OC)c1 | inactive: -1.17% |
| COc1ccc(C2(C)NC(=O)N(CC(=O)c3cc(C)n(C4CC4)c3C)C2=O)cc1OC (stereo not given) | inactive: -2.89% |
| Cc1[nH]c2c(C(=O)N3CCCC(CCC(=O)NCc4ccccc4F)C3)cccc2c1C (stereo not given) | inactive: -0.046% |
